Test results taken from PMC9384988, “The TPR domain of PgaA is a multifunctional scaffold that binds PNAG and modulates PgaB-dependent polymer processing” (PLoS Pathogens, 2022).
Substitutions are numbered along the chain they refer to. Names and notes keep the numbering of the source. Results are given in words; binding and its absence hold for the method and conditions named. For part of these data: In cells and extracts the contact can be indirect. Some binding calls cover weakened binding; strength is not graded here. For part of these data: Sequences can lack the tags named with a protein. Blank lines part the entries; values can stand above or below the binder they belong to.

Experiments:
[1] = molecular target: T1, His-PgaA-Δ220 (His-PgaA-221-807) (E. coli K-12) (UniProt P69434); test: pull-down; Ni-NTA batch pull-down of N-terminally His-tagged PgaA constructs co-expressed with untagged PgaB constructs in E. coli BL21; lysate pellet solubilised in 1X PBS with 1% DDM, washes in PBS with 0.5% DDM, 4°C; Western blot with anti-his and anti-PgaB
T1 sequence: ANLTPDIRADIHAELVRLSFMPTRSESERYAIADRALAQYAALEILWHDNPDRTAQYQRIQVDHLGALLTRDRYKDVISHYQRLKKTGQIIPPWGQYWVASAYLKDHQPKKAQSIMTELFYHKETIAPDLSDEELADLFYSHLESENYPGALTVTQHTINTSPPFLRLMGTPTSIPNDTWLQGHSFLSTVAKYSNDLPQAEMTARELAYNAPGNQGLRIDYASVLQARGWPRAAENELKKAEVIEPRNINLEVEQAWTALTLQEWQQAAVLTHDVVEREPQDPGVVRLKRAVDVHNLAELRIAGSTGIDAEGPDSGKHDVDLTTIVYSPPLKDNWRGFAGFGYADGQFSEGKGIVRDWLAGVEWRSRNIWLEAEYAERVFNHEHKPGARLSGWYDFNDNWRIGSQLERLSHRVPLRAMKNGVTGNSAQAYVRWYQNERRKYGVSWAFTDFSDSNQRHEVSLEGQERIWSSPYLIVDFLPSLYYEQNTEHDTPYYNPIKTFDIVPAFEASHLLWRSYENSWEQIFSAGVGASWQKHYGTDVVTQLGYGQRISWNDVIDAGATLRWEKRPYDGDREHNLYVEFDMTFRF

[2] = molecular target: T2, His-PgaA (PgaA-32-807) (E. coli K-12, UniProt P69434 32-807); test: co-purification (NiNTA, gel filtration) with SDS-PAGE; His-PgaA and PgaB constructs co-expressed in BL21, extracted with 1% DDM, purified by NiNTA and gel filtration (20 mM Tris pH 8, 150 mM NaCl, 0.1% DDM); Coomassie gel of the purified complexes
T2 construct: also called His-PgaA-32-807; full-length PgaA; source: E. coli BL21: co-expressed with PgaB, in DDM extract of the lysate pellet (pull-down); expressed alone or with PgaB and purified (NiNTA, gel filtration, DDM); not shown: His6, N-terminal, kept
T2 sequence (looked up): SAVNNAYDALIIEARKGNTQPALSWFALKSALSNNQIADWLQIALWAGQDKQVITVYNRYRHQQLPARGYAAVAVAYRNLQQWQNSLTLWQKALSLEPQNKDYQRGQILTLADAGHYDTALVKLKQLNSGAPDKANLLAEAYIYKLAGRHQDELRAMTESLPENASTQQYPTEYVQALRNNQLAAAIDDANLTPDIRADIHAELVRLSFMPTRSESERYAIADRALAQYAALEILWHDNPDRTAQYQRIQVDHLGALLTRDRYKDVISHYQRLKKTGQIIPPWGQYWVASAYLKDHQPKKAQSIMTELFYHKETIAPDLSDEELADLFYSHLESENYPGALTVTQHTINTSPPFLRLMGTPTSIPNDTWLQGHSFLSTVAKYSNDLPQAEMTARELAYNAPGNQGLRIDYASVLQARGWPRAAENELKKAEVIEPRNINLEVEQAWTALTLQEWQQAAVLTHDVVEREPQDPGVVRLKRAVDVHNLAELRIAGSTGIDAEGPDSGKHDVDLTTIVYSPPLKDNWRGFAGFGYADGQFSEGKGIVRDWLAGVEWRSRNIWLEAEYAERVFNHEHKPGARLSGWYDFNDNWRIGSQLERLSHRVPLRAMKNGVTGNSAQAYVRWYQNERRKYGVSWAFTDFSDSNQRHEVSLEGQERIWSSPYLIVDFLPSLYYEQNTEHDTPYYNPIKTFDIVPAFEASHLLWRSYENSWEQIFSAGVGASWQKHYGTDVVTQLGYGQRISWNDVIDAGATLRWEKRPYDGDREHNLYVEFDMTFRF

[3] = molecular target: PgaA-220-367 (crystallized fragment of PgaA-32-367) (E. coli K-12) (UniProt P69434); test: crystal structure; PgaA-32-367 without His6-tag, 16 mg/mL, sitting drop, PEG 8000, 0.1 M Tris, 200 mM MgCl2; space group P6_(2), two molecules in the asymmetric unit; both purified

binding [1]: binds
B1: PgaB-1-672-C21S (enzyme, UniProt P75906 21-672)
chain: SISQSRTSFIPPQDRESLLAEQPWPHNGFVAISWHNVEDEAADQRFMSVRTSALREQFAWLRENGYQPVSIAQIREAHRGGKPLPEKAVVLTFDDGYQSFYTRVFPILQAFQWPAVWAPVGSWVDTPADKQVKFGDELVDREYFATWQQVREVARSRLVELASHTWNSHYGIQANATGSLLPVYVNRAYFTDHARYETAAEYRERIRLDAVKMTEYLRTKVEVNPHVFVWPYGEANGIAIEELKKLGYDMFFTLESGLANASQLDSIPRVLIANNPSLKEFAQQIITVQEKSPQRIMHIDLDYVYDENLQQMDRNIDVLIQRVKDMQISTVYLQAFADPDGDGLVKEVWFPNRLLPMKADIFSRVAWQLRTRSGVNIYAWMPVLSWDLDPTLTRVKYLPTGEKKAQIHPEQYHRLSPFDDRVRAQVGMLYEDLAGHAAFDGILFHDDALLSDYEDASAPAITAYQQAGFSGSLSEIRQNPEQFKQWARFKSRALTDFTLELSARVKAIRGPHIKTARNIFALPVIQPESEAWFAQNYADFLKSYDWTAIMAMPYLEGVAEKSADQWLIQLTNQIKNIPQAKDKSILELQAQNWQKNGQHQAISSQQLAHWMSLLQLNGVKNYGYYPDNFLHNQPEIDLIRPEFSTAWYPKND

binding [2]: binds
B2: PgaB-D115A (enzyme, UniProt P75906 21-672)
chain: B1 chain with S1C, D95A

binding [3]: no binding
B3: PgaA-220-367 (crystallized fragment of PgaA-32-367) (domain or fragment, UniProt P69434 220-367)
chain: DANLTPDIRADIHAELVRLSFMPTRSESERYAIADRALAQYAALEILWHDNPDRTAQYQRIQVDHLGALLTRDRYKDVISHYQRLKKTGQIIPPWGQYWVASAYLKDHQPKKAQSIMTELFYHKETIAPDLSDEELADLFYSHLESEN
